Publication PMC7363444
No constants are given. Whether binding was seen depends on the method and setting. Binding seen in cells or lysates may run through a third protein. These calls come from enrichment with a bait or labelling near it, and not all partners need be listed. Where a sequence is shown, tags or fusion partners need not be part of it. Blank lines part the entries; values can stand above or below the molecule they belong to.

The chains behind the UniProt entries cited, without tags or fusion partners.
UniProt Q9UHB6: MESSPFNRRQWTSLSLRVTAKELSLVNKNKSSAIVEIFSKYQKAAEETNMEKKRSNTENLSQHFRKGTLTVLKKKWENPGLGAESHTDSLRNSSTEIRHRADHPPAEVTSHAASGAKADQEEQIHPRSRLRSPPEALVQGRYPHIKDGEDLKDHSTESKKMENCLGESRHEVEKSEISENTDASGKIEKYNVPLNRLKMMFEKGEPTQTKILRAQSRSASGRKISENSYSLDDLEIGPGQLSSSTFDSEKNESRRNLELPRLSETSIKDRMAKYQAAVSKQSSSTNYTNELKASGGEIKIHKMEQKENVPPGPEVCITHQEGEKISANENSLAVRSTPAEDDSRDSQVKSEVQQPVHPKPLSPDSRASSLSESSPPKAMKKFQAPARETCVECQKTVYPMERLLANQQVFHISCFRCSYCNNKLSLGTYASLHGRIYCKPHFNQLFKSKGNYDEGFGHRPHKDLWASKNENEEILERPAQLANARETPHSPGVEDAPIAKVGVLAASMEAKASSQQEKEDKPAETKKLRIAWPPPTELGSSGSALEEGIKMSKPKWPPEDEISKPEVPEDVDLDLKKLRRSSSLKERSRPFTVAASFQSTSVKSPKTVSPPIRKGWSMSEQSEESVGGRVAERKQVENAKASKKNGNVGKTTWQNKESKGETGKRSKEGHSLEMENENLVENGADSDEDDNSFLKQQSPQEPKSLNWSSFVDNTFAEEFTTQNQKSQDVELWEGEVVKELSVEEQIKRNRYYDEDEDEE
UniProt Q15154: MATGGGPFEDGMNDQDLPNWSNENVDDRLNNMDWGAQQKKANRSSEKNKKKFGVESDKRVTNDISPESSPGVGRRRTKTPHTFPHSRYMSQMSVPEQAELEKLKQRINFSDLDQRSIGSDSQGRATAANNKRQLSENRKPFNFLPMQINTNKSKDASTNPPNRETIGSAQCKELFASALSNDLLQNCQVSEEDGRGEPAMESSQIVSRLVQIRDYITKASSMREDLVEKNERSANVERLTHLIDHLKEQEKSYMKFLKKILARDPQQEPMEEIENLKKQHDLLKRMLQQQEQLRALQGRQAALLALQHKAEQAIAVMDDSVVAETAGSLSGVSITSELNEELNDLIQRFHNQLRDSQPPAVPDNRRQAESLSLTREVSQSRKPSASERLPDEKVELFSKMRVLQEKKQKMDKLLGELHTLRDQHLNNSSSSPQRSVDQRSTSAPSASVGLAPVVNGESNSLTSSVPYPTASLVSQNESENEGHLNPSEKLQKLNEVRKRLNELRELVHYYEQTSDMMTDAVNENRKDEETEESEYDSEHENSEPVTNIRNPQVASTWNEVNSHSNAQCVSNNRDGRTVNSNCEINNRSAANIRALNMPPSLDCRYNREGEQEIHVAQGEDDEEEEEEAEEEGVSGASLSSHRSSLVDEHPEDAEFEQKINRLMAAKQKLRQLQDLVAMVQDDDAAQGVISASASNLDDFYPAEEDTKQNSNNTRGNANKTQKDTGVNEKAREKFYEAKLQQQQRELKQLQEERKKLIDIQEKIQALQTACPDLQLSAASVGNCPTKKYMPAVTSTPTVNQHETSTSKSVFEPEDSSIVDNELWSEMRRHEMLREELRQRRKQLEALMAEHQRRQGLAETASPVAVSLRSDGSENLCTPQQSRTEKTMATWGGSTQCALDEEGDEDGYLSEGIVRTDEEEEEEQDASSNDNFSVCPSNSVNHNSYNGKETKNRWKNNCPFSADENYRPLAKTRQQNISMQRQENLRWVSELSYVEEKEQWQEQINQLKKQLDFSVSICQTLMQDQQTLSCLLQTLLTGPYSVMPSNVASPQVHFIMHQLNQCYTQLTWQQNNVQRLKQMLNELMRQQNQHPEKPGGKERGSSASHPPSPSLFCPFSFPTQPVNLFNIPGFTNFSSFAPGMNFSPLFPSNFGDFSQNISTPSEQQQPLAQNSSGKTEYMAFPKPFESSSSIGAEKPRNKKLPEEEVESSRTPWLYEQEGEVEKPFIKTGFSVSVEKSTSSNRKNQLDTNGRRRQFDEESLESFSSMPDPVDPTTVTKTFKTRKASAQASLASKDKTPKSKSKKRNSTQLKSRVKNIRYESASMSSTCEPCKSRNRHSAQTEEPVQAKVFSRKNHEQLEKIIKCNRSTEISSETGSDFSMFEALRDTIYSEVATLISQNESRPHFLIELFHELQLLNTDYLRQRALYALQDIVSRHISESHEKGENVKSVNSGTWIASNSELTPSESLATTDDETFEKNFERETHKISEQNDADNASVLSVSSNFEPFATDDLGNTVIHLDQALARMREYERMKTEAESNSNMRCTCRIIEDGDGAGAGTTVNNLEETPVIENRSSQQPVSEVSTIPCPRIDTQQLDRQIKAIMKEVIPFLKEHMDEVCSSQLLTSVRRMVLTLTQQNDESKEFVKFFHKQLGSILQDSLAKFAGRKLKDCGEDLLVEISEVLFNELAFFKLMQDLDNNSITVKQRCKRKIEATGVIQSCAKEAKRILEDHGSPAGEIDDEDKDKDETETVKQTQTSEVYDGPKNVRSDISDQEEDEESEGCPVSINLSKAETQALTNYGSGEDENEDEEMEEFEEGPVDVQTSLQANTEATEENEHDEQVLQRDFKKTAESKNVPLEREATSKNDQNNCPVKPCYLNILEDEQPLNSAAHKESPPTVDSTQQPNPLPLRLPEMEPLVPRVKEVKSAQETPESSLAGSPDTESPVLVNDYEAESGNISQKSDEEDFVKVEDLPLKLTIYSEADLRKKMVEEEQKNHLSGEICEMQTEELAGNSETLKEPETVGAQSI
UniProt P21333: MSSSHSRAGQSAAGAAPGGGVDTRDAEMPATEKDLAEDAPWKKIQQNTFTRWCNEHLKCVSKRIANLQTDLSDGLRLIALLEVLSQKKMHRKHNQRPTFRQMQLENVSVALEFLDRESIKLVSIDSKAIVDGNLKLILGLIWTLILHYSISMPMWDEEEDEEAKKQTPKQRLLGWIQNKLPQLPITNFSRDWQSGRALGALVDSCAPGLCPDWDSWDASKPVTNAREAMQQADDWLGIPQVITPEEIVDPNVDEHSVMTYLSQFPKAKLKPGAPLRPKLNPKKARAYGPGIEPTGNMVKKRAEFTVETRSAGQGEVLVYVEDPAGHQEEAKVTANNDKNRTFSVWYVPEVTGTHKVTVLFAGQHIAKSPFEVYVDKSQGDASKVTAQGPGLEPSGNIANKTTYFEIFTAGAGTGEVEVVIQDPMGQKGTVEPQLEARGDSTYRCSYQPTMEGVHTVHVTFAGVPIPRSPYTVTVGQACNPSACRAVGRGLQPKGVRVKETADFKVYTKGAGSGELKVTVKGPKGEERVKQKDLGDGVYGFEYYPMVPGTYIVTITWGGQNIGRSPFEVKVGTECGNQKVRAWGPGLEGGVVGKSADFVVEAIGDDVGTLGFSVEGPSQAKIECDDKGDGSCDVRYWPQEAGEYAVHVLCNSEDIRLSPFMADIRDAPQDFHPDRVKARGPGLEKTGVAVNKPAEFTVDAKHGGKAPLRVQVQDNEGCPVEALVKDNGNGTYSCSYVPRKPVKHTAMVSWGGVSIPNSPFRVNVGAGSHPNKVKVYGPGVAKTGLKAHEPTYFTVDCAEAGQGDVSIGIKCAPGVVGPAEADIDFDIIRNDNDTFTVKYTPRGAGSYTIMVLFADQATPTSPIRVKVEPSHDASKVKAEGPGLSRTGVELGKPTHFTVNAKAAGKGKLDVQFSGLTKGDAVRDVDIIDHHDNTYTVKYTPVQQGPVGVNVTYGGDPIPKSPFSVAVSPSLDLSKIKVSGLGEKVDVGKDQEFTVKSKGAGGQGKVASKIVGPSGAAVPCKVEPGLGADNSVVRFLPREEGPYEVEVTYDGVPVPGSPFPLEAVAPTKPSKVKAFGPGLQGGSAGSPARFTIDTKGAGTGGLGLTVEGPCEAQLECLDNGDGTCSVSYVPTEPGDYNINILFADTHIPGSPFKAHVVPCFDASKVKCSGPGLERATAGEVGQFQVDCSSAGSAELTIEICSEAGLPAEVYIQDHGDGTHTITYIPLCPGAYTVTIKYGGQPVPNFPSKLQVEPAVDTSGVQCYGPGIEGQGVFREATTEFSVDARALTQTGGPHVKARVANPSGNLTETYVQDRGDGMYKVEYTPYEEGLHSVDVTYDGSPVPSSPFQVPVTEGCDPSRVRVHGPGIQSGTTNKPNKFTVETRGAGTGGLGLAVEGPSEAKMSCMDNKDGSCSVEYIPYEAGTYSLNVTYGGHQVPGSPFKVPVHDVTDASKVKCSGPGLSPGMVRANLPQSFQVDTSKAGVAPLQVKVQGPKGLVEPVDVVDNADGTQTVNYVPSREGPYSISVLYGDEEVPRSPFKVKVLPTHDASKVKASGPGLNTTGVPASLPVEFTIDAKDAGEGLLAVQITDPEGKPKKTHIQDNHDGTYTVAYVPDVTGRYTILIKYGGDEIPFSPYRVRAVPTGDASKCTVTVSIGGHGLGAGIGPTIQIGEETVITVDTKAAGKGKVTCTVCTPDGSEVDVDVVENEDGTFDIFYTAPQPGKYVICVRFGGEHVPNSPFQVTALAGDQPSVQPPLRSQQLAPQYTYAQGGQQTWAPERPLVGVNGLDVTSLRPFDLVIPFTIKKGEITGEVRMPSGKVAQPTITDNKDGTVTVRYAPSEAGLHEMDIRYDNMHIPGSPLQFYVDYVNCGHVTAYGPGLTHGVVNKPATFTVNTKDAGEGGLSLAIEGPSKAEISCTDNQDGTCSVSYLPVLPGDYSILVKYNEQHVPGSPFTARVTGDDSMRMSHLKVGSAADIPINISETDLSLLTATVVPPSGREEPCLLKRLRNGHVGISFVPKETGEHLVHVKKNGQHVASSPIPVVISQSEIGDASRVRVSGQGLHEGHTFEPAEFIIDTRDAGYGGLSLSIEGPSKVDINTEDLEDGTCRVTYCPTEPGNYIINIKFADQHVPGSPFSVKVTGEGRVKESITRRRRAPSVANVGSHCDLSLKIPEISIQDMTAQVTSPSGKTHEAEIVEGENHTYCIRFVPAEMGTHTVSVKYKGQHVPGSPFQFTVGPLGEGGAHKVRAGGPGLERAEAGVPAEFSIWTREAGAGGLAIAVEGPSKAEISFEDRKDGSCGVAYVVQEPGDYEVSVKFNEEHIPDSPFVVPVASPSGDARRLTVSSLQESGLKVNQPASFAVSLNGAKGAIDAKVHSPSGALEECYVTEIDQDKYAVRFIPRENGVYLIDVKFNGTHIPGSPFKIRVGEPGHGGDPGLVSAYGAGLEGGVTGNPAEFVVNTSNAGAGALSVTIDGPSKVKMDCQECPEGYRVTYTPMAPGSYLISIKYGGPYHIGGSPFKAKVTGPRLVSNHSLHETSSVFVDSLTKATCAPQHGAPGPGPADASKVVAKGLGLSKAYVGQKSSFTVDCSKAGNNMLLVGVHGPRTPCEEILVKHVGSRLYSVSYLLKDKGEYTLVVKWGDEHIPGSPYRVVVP

Molecular target: T1, FLAG-TurboID-LUZP1 (human) (UniProt Q86V48)
T1 sequence: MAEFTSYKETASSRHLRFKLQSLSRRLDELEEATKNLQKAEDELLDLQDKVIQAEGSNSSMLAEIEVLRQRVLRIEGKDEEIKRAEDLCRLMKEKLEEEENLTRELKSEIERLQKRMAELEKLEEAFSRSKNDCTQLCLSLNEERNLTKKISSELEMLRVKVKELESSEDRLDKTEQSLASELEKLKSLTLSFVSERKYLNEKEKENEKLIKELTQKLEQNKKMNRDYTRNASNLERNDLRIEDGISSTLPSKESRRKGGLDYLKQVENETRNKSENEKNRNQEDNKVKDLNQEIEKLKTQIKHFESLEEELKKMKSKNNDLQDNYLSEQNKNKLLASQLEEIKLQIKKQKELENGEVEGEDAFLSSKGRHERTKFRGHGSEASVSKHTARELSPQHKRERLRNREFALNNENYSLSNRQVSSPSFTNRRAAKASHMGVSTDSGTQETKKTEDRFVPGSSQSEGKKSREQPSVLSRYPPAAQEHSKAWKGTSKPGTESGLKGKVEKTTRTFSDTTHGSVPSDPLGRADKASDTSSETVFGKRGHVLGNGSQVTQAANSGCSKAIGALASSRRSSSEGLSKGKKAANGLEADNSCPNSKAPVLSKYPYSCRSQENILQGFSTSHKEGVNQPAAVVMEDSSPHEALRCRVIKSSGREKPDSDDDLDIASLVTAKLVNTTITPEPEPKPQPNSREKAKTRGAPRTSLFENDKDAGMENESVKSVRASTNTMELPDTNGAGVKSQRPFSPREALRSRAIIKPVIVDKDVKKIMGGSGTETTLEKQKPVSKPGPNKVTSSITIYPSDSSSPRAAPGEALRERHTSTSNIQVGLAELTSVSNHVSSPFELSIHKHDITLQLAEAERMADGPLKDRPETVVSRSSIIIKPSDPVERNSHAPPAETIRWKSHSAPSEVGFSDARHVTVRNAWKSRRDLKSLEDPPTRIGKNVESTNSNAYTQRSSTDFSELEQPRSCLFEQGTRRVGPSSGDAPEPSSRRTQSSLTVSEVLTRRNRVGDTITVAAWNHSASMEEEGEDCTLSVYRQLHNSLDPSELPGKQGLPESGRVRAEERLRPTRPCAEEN
Experiment: proximity labelling; TurboID: RPE1 cells stably expressing TbID-LUZP1 or TbID alone at sub-endogenous levels, NeutrAvidin pulldown, LC-MS/MS, three replicates

binding: binds
Molecule: alpha-actinin (endogenous) (human (endogenous in RPE1))

binding: binds
B1: palladin (endogenous) (protein, UniProt Q8WX93 1-1383)
chain: MSGTSSHESFYDSLSDMQEESKNTDFFPGLSAFLSQEEINKSLDLARRAIADSETEDFDSEKEISQIFSTSPASLCEHPSHKETKLGEHASRRPQDNRSTPVQPLAEKQTKSISSPVSKRKPAMSPLLTRPSYIRSLRKAEKRGAKTPSTNVKPKTPHQRKGGPQSQLCDKAANLIEELTSIFKAAKPRNRSPNGESSSPDSGYLSPKNQPSALLSASASQSPMEDQGEMEREVKSPGARHCYQDNQDLAVPHNRKSHPQPHSALHFPAAPRFIQKLRSQEVAEGSRVYLECRVTGNPTPRVRWFCEGKELHNTPDIQIHCEGGDLHTLIIAEAFEDDTGRYTCLATNPSGSDTTSAEVFIEGASSTDSDSESLAFKSRAGAMPQAQKKTTSVSLTIGSSSPKTGVTTAVIQPLSVPVQQVHSPTSYLCRPDGTTTAYFPPVFTKELQNTAVAEGQVVVLECRVRGAPPLQVQWFRQGSEIQDSPDFRILQKKPRSTAEPEEICTLVIAETFPEDAGIFTCSARNDYGSATSTAQLVVTSANTENCSYESMGESNNDHFQHFPPPPPILETSSLELASKKPSEIQQVNNPELGLSRAALQMQFNAAERETNGVHPSRGVNGLINGKANSNKSLPTPAVLLSPTKEPPPLLAKPKLDPLKLQQLQNQIRLEQEAGARQPPPAPRSAPPSPPFPPPPAFPELAACTPPASPEPMSALASRSAPAMQSSGSFNYARPKQFIAAQNLGPASGHGTPASSPSSSSLPSPMSPTPRQFGRAPVPPFAQPFGAEPEAPWGSSSPSPPPPPPPVFSPTAAFPVPDVFPLPPPPPPLPSPGQASHCSSPATRFGHSQTPAAFLSALLPSQPPPAAVNALGLPKGVTPAGFPKKASRTARIASDEEIQGTKDAVIQDLERKLRFKEDLLNNGQPRLTYEERMARRLLGADSATVFNIQEPEEETANQEYKVSSCEQRLISEIEYRLERSPVDESGDEVQYGDVPVENGMAPFFEMKLKHYKIFEGMPVTFTCRVAGNPKPKIYWFKDGKQISPKSDHYTIQRDLDGTCSLHTTASTLDDDGNYTIMAANPQGRISCTGRLMVQAVNQRGRSPRSPSGHPHVRRPRSRSRDSGDENEPIQERFFRPHFLQAPGDLTVQEGKLCRMDCKVSGLPTPDLSWQLDGKPVRPDSAHKMLVRENGVHSLIIEPVTSRDAGIYTCIATNRAGQNSFSLELVVAAKEAHKPPVFIEKLQNTGVADGYPVRLECRVLGVPPPQIFWKKENESLTHSTDRVSMHQDNHGYICLLIQGATKEDAGWYTVSAKNEAGIVSCTARLDVYTQWHQQSQSTKPKKVRPSASRYAALSDQGLDIKAAFQPEANPSHLTLNTALVESEDL

More lines, now with the values behind:

Molecule: LIMA1/Eplin (endogenous) (from UniProt Q9UHB6 1-759)
binding: binds

Molecule: PCM1 (endogenous) (from UniProt Q15154 1-2024)
binding: binds

Molecule: filamin A (endogenous) (from UniProt P21333 1-2647)
binding: binds
